Measurements reported in PubChem BioAssay AID1159578 (Peter MacCallum Cancer Centre, 2015)

- Screen: 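Genome-wide hunt for genes controlling movement of lymphatic endothelial cells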 (primary screen)
- Cells: human lymphatic endothelial cells
- Reagent: siRNA pool against human genes, 40 nM
- Duration: 48 h after transfection
- Measurement: 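High-content imaging of dye-stained cells in a scratch assay measures filled wound area and nuclei per well; duplicate means given as ratio to mock and robust z-score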
- Direction: migration robust z-score: higher = faster migration into the scratch; nuclei per well: higher = more cells in the well
- Active means: 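Migration changed when robust z exceeds 2 or falls below -2 and mean nuclei number is at least 3300; otherwise not called changed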
- Meaning of the calls: active = migration changed; inactive = no migration change, or too few cells
In all, the deposit lists about 18,000 reagents; shown is a part drawn at random. Over the whole deposit, about 1,030 (5.7%) got an active call. 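Inactive calls also include pools with fewer than 3300 nuclei, whose migration was not assessed.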 Raw values are not corrected between plates. Further read-outs or replicates are left out here. Reagent sequences are not shown.

| Target gene | migration robust z-score | nuclei per well, duplicate mean | outcome |
| --- | --- | --- | --- |
| CA1 (carbonic anhydrase 1) | 1.02 | 6074 | inactive |
| FBXO45 (F-box protein 45) | 0.57 | 7090 | inactive |
| PHF10 (PHD finger protein 10) | -0.65 | 5652 | inactive |
| KIF13A (kinesin family member 13A) | 0.46 | 6192 | inactive |
| CST8 (cystatin 8) | 0.42 | 5674 | inactive |
| SENP8 (SUMO peptidase family member, NEDD8 specific) | 0.13 | 5324 | inactive |
| LEF1 (lymphoid enhancer binding factor 1) | -0.24 | 5777 | inactive |
| RAB3GAP2 (RAB3 GTPase activating non-catalytic protein subunit 2) | -0.62 | 5358 | inactive |
| VMA22 (vacuolar ATPase assembly factor VMA22) | -0.5 | 5198 | inactive |
| CD300LB (CD300 molecule like family member b) | 2.24 | 6006 | active |
| EGR3 (early growth response 3) | -0.44 | 4660 | inactive |
| TRPC3 | -1.89 | 4420 | inactive |
| UNC45A (unc-45 myosin chaperone A) | 0.19 | 5622 | inactive |
| CCDC106 (coiled-coil domain containing 106) | -0.04 | 6450 | inactive |
| KLHDC9 (kelch domain containing 9) | -1.88 | 2373 | inactive |
| NEMF (nuclear export mediator factor) | -0.5 | 4460 | inactive |
| OBSL1 (obscurin like cytoskeletal adaptor 1) | -1.86 | 3962 | inactive |
| GPR119 (G protein-coupled receptor 119) | -0.21 | 6804 | inactive |
| E2F4 (E2F transcription factor 4) | 1.38 | 6812 | inactive |
| RBM4B (RNA binding motif protein 4B) | -0.84 | 5808 | inactive |
| STAG1 (STAG1 cohesin complex component) | -0.44 | 5188 | inactive |
| CHST12 (carbohydrate sulfotransferase 12) | -1.12 | 3845 | inactive |
| BRPF3 (bromodomain and PHD finger containing 3) | 0.2 | 4806 | inactive |
| ROBO4 (roundabout guidance receptor 4) | 0.84 | 7582 | inactive |
| ZSWIM8 (zinc finger SWIM-type containing 8) | 0.58 | 6462 | inactive |
| TMEM198 (transmembrane protein 198) | -0.92 | 5957 | inactive |
| EPRS1 (glutamyl-prolyl-tRNA synthetase 1) | 0.36 | 5308 | inactive |

Continued, starting with the last 7 of the part before.
| Target gene | migration robust z-score | nuclei per well, duplicate mean | outcome |
| --- | --- | --- | --- |
| STAG1 (STAG1 cohesin complex component) | -0.44 | 5188 | inactive |
| CHST12 (carbohydrate sulfotransferase 12) | -1.12 | 3845 | inactive |
| BRPF3 (bromodomain and PHD finger containing 3) | 0.2 | 4806 | inactive |
| ROBO4 (roundabout guidance receptor 4) | 0.84 | 7582 | inactive |
| ZSWIM8 (zinc finger SWIM-type containing 8) | 0.58 | 6462 | inactive |
| TMEM198 (transmembrane protein 198) | -0.92 | 5957 | inactive |
| EPRS1 (glutamyl-prolyl-tRNA synthetase 1) | 0.36 | 5308 | inactive |
| SEMA4C (semaphorin 4C) | -2.76 | 5020 | active |
| KRT79 (keratin 79) | 0.26 | 4781 | inactive |
| RASGRP2 (RAS guanyl releasing protein 2) | -1.02 | 3484 | inactive |
| TMEM179 (transmembrane protein 179) | -0.09 | 5664 | inactive |
| SPINT2 (serine peptidase inhibitor, Kunitz type 2) | 0.24 | 7826 | inactive |
| STX5 (syntaxin 5) | 0.23 | 5952 | inactive |
| EPB41 (erythrocyte membrane protein band 4.1) | -0.68 | 5927 | inactive |
| TRMT5 (tRNA methyltransferase 5) | 0.26 | 5696 | inactive |
| ZNF705A (zinc finger protein 705A) | -0.33 | 6522 | inactive |
| HAUS6 (HAUS augmin like complex subunit 6) | 0.15 | 5352 | inactive |
| ATP6V0E1 (ATPase H+ transporting V0 subunit e1) | -0.62 | 4202 | inactive |
| RBPJ | -0.24 | 4197 | inactive |
| KRTAP4-7 (keratin associated protein 4-7) | -0.45 | 5488 | inactive |
| CSRP2 (cysteine and glycine rich protein 2) | -1.19 | 5333 | inactive |
| GUCD1 (guanylyl cyclase domain containing 1) | 0.72 | 6441 | inactive |
| CPEB4 (cytoplasmic polyadenylation element binding protein 4) | -0.82 | 5888 | inactive |
| ETAA1 (ETAA1 activator of ATR kinase) | 0.04 | 6980 | inactive |
| H2AJ (H2A.J histone) | -0.52 | 3862 | inactive |
| ANGPTL3 (angiopoietin like 3) | 0.11 | 6098 | inactive |
| TEX28 (testis expressed 28) | -0.03 | 5594 | inactive |
| CDK5RAP3 (CDK5 regulatory subunit associated protein 3) | 1.97 | 5958 | inactive |
| OR3A3 (olfactory receptor family 3 subfamily A member 3) | 0.43 | 5836 | inactive |
| CFHR1 (complement factor H related 1) | 1.09 | 6304 | inactive |
| CACNB4 (calcium voltage-gated channel auxiliary subunit beta 4) | -0.05 | 4662 | inactive |
| ADCK1 (aarF domain containing kinase 1) | -4.08 | 3927 | active |
| MTFMT (mitochondrial methionyl-tRNA formyltransferase) | 0 | 5190 | inactive |
| BTBD7 (BTB domain containing 7) | -1.39 | 5516 | inactive |
| RGCC (regulator of cell cycle) | -0.2 | 5274 | inactive |
| CSTPP1 | -0.18 | 5926 | inactive |
| MCM8 | -1.12 | 5896 | inactive |
